Results: PMC9322189 (Pharmaceutics, 2022)
For some assays here: End groups of sequences in plain letters are not given here. For some assays here: HELM strings list residues between dots; [ac] is acetyl, [am] amide, other brackets name non-standard units.

Experiment: peptide made by a vendor
Conditions: whole synthesis

GCHLFSKRKCSQNKQSKRGKSRFYLSWRPL and NTDPSCSCVTPLDFNHCLKNREDNGLPMLS are the same in “final purity (method not given)” value: 93% for the first, 93% for the second.

Experiment: peptide made by a vendor (Fmoc solid-phase peptide synthesis)
Conditions: whole synthesis, area %, scale of the general procedure 0.25 mmol

Compared with “PEPTIDE1{A.A.E.V.R.D.P.A.V.R.L.P.L.Q.G.L.P.G.Q.D.L.R.G.A.H.P.A.Q.A}$$$$V2.0”, “PEPTIDE1{A.A.G.R.A.L.P.L.V.D.A.E.L.P.A.D.A.A.A.E.V.R.D.P.A.V.R.L.P.L}$$$$V2.0” is lower in “final purity (method not given)” value: 97% for the first, 95% for the second.

First: PEPTIDE1{D.G.W.R.L.L.P.G.V.S.R.V.Q.M.E.S.S.R.G.R.R.R.Q.G.R.Q.L.R.G.Q}$$$$V2.0
Second: PEPTIDE1{D.L.N.V.E.R.A.L.R.V.R.G.L.P.R.L.H.Q.L.G.Q.V.R.L.R.T.A.T.V.L}$$$$V2.0
The “final purity (method not given)” value of the first is higher: 99% for the first, 95% for the second.

Compared with “PEPTIDE1{E.R.P.Q.D.T.H.S.C.L.P.V.R.E.E.D.P.G.L.R.V.R.W.R.L.M.I.A.S.V}$$$$V2.0”, “PEPTIDE1{F.M.L.I.K.N.P.M.N.V.K.N.V.E.R.P.L.K.C.M.A.T.L.P.N.I.R.K.F.I}$$$$V2.0” is higher in “final purity (method not given)” value: 93% for the first, 96% for the second.

Compared with “PEPTIDE1{G.Q.D.L.R.G.A.H.P.A.Q.A.H.A.G.D.A.L.P.G.A.Q.G.G.P.P.D.L.H.R}$$$$V2.0”, “PEPTIDE1{H.Q.L.G.Q.V.R.L.R.T.A.T.V.L.R.P.G.A.A.A.G.R.A.L.P.L.V.D.A.E.L}$$$$V2.0” is higher in “final purity (method not given)” value: 93% for the first, 94% for the second.

Going from “PEPTIDE1{L.V.R.N.P.M.C.V.S.S.V.G.K.P.S.D.M.V.Q.P.L.K.P.I.R.E.F.I.G.A}$$$$V2.0” to “PEPTIDE1{R.E.D.N.G.L.P.M.L.S.T.N.A.M.S.W.K.T.I.S.A.M.E.K.R.G.A.R.E.T}$$$$V2.0”, the “final purity (method not given)” value falls from 94% to 92%.

First: PEPTIDE1{R.E.S.S.R.P.R.G.E.E.T.K.R.D.Q.E.L.E.I.A.V.G.P.E.E.A.K.L.C.L}$$$$V2.0
Second: PEPTIDE1{S.A.M.E.K.R.G.A.R.E.T.Q.Q.Q.R.K.R.V.F.R.G.R.G.V.N.S.A.K}$$$$V2.0
The “final purity (method not given)” value of the first is higher: 97% for the first, 95% for the second.

Going from “PEPTIDE1{S.S.D.E.L.R.N.G.K.M.K.A.F.L.S.L.A.R.F.Q.I.L.N.T.K.E.L.K.T.T}$$$$V2.0” to “PEPTIDE1{S.V.T.N.T.S.L.A.H.E.L.W.K.V.P.L.H.L.K.T.S.L.L.R.P.A.H.L.R.D}$$$$V2.0”, the “final purity (method not given)” value rises from 94% to 95%.

With “PEPTIDE1{V.T.L.E.E.R.L.D.K.A.C.E.P.G.V.D.Y.D.G.Q.T.G.V.I.H.F.Q.P.R.G}$$$$V2.0” the “final purity (method not given)” value was 92%.
